# Results from patent US8178506B2, “Oligomeric compounds and compositions for use in modulation of small non-coding RNAs” (Regulus Therapeutics Inc., priority 2003, dated 2012).
# Some results were stated once for a whole list of compounds, not compound by compound.
# Tested on: adipocytes
# Assay: Triglyceride accumulation assay in adipocytes
# Assay type: cell-based, human
# Conditions: differentiating adipocytes, control ISIS 342673
# Protocol: The triglyceride accumulation assay measures the synthesis of triglyceride by adipocytes. Triglyceride accumulation is measured using the Infinity™ Triglyceride reagent kit (Sigma-Aldrich, St. Louis, Mo.). On day nine post-transfection, cells are washed and lysed at room temperature, and the triglyceride assay reagent is added. Triglyceride accumulation is measured based on the amount of glycerol liberated from triglycerides by the enzyme lipoprotein lipase. Liberated glycerol is phosphorylated by glycerol kinase, and hydrogen peroxide is generated during the oxidation of glycerol-1-phosphate to dihydroxyacetone phosphate by glycerol phosphate oxidase. Horseradish peroxidase (HRP) uses H2O2 to oxidize 4-aminoantipyrine and 3,5 dichloro-2-hydroxybenzene sulfonate to produce a red-colored dye. Dye absorbance, which is proportional to the concentration of glycerol, is measured at 515 nm using an UV spectrophotometer. Glycerol concentration is calculated from a standard curve for each assay, and data are normalized to total cellular protein as determined by a Bradford assay (Bio-Rad Laboratories, Hercules, Calif.).
# An increase in triglyceride content is another well-established marker for adipocyte differentiation. The triglyceride accumulation assay measures the synthesis of triglyceride by adipocytes. Triglyceride accumulation was measured using the Infinity™ Triglyceride reagent kit (Sigma-Aldrich, St. Louis, Mo.). Human white preadipocytes (Zen-Bio Inc., Research Triangle Park, N.C.) were grown in preadipocyte media (ZenBio Inc.). One day before transfection, 96-well plates were seeded with 3000 cells/well. Cells were transfected according to standard published procedures with 250 nM oligomeric compound in LIPOFECTIN™ (Invitrogen Corporation, Carlsbad, Calif.) (Monia et al., J. Biol. Chem. 1993 268(19):14514-22). Oligomeric compounds were tested in triplicate on each 96-well plate, and the effects of TNF-α, a positive drug control that inhibits adipocyte differentiation, were also measured in triplicate. Negative and transfectant-only controls may be measured up to six times per plate. […] Triglyceride accumulation was measured based on the amount of glycerol liberated from triglycerides by the enzyme lipoprotein lipase. […] Dye absorbance, which is proportional to the concentration of glycerol, was measured at 515 nm using an UV spectrophotometer. Glycerol concentration was calculated from a standard curve for each assay, and data were normalized to total cellular protein as determined by a Bradford assay (Bio-Rad Laboratories, Hercules, Calif.). Results are expressed as a percent±standard deviation relative to transfectant-only control.
sequence,measurement,value
"AACTACTTCCAGAGCAGGTGA (anti-miR; chemistry not fully specified) [ISIS 328136, uniform 2′-MOE PS; targets hypothetical miRNA-181]",reduction of the levels of triglycerides,at least 50%
"AGCCTCCTTCTTCTCGTACTA (anti-miR; chemistry not fully specified) [ISIS 328129, uniform 2′-MOE PS; targets hypothetical miRNA-173]",reduction of the levels of triglycerides,at least 50%
"TCCACAAAGCTGAACATGTCT (anti-miR; chemistry not fully specified) [ISIS 328117, uniform 2′-MOE PS; targets hypothetical miRNA-144]",reduction of the levels of triglycerides,at least 50%
"TGTGAGTTCTACCATTGCCAAA (anti-miR; chemistry not fully specified) [ISIS 327969, uniform 2′-MOE PS; targets mir-182]",reduction of the levels of triglycerides,at least 50%
